Assay results from PMC11618752.
Results are given in words; binding and its absence hold for the method and conditions named. For some assays here: In cells and extracts the contact can be indirect. Some entries that bind do so weakly or less than the wild type. Blank lines part the entries; values can stand above or below the binder they belong to.

Protein sequences, listed by entry. Tags and fused reporters are not part of them. Lines headed by an entry give the natural chain unless they say otherwise; changes in a name come on top.
UniProt Q9BRJ7: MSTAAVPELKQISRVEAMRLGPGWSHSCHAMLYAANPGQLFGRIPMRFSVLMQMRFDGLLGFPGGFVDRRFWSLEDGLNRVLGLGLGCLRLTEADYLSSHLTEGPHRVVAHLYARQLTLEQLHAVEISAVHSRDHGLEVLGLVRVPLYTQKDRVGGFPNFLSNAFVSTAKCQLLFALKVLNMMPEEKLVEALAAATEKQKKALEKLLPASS
UniProt O14980: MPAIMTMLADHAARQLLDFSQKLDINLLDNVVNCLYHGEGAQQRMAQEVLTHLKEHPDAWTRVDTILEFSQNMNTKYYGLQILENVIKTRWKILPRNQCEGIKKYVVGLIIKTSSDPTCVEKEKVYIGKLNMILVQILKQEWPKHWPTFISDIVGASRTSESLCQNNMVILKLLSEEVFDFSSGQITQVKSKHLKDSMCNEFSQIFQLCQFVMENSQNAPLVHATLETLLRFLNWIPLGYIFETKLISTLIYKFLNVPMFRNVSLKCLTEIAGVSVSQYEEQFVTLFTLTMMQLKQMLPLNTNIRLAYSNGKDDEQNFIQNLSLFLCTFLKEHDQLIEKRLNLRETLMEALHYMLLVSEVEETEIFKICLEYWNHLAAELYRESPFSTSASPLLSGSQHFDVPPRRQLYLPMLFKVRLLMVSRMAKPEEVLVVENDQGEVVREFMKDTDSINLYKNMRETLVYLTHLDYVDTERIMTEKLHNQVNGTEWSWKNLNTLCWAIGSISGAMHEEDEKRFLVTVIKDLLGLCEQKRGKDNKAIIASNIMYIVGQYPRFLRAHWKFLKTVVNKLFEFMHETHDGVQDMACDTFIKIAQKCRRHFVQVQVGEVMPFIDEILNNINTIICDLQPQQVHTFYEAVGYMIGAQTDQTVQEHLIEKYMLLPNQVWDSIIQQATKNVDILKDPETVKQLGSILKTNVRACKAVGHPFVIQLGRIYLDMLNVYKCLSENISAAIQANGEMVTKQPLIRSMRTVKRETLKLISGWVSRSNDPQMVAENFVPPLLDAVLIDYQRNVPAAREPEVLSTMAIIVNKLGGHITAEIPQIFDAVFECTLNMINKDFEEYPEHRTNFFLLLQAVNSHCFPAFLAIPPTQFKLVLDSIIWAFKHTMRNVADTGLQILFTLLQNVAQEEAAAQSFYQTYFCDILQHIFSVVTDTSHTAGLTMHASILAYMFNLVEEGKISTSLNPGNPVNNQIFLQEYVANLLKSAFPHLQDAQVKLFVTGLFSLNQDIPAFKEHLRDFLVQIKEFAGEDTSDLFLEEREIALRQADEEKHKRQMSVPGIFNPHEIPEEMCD

What was measured:
[1] = biological target: Flag-tagged wild-type TIRR (UniProt Q9BRJ7); test: co-IP; ectopically expressed E3 ubiquitin ligases with Flag-TIRR; whole-cell lysates of 293T cells transfected with Myc-DTX3L and Flag-TIRR (Fig. 4d); other ligases in Supplementary Fig. 3a-c, legends not shown
[2] = biological target: XPO1 protein, recombinant (UniProt O14980); test: ITC; XPO1 (~20 μM, 0.2 ml) in the cell, NES peptide (~200 μM) in the syringe; 25 °C; first injection 0.4 μl, then 19 injections of 2 μl; MicroCal iTC200; both purified

binding [1]: binds
B1: TRIM56, ectopically expressed (enzyme, UniProt Q9BRZ2 1-755)
chain: MVSHGSSPSLLEALSSDFLACKICLEQLRAPKTLPCLHTYCQDCLAQLADGGRVRCPECRETVPVPPEGVASFKTNFFVNGLLDLVKARACGDLRAGKPACALCPLVGGTSTGGPATARCLDCADDLCQACADGHRCTRQTHTHRVVDLVGYRAGWYDEEARERQAAQCPQHPGEALRFLCQPCSQLLCRECRLDPHLDHPCLPLAEAVRARRPGLEGLLAGVDNNLVELEAARRVEKEALARLREQAARVGTQVEEAAEGVLRALLAQKQEVLGQLRAHVEAAEEAARERLAELEGREQVARAAAAFARRVLSLGREAEILSLEGAIAQRLRQLQGCPWAPGPAPCLLPQLELHPGLLDKNCHLLRLSFEEQQPQKDGGKDGAGTQGGEESQSRREDEPKTERQGGVQPQAGDGAQTPKEEKAQTTREEGAQTLEEDRAQTPHEDGGPQPHRGGRPNKKKKFKGRLKSISREPSPALGPNLDGSGLLPRPIFYCSFPTRMPGDKRSPRITGLCPFGPREILVADEQNRALKRFSLNGDYKGTVPVPEGCSPCSVAALQSAVAFSASARLYLINPNGEVQWRRALSLSQASHAVAALPSGDRVAVSVAGHVEVYNMEGSLATRFIPGGKASRGLRALVFLTTSPQGHFVGSDWQQNSVVICDGLGQVVGEYKGPGLHGCQPGSVSVDKKGYIFLTLREVNKVVILDPKGSLLGDFLTAYHGLEKPRVTTMVDGRYLVVSLSNGTIHIFRVRSPDS

binding [2]: binds
Binder: LLFALKVLNM (peptide, UniProt Q9BRJ7 173-182) [NES peptide (173–182 aa of TIRR)]
